In assay [1] the target is full length human APP (hAPP695) (human) (UniProt P05067). Put plainly: co-IP; HEK293 cells co-transfected; lysis buffer 50 mM Tris pH 7.5, 150 mM NaCl, 1 mM EDTA, 1% NP40; anti-KCC2, APPc or anti-GABAAR α1 antibody at 4°C overnight, protein A agarose; rabbit or mouse IgG as control; western blot.
For assay [2], the target named is GABAA receptor α1 subunit (UniProt P62812). Described as above.

The chains behind the UniProt entries cited, without tags or fusion partners. Residues count along the entry.
UniProt P62812, residues 28-455: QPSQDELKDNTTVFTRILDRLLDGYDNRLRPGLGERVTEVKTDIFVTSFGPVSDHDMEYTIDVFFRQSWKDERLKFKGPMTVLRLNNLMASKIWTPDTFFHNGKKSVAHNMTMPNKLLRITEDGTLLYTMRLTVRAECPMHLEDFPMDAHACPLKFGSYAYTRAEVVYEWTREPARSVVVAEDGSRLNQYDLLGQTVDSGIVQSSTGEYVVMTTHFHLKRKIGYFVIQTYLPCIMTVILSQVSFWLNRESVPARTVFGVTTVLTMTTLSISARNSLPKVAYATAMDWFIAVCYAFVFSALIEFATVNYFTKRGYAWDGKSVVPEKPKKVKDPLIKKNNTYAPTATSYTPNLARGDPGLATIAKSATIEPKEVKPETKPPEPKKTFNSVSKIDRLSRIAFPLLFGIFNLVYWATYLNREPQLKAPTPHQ

Results are given in words; binding and its absence hold for the method and conditions named. In cells and extracts the contact can be indirect. Some entries that bind do so weakly or less than the wild type.

B1: K+-Cl- cotransporter KCC2 (protein, UniProt Q63633-2 1-1116)
chain: MLNNLTDCEDGDGGANPGDGNPKESSPFINSTDTEKGREYDGRNMALFEEEMDTSPMVSSLLSGLANYTNLPQGSKEHEEAENNEGGKKKPVQAPRMGTFMGVYLPCLQNIFGVILFLRLTWVVGIAGIMESFCMVFICCSCTMLTAISMSAIATNGVVPAGGSYYMISRSLGPEFGGAVGLCFYLGTTFAGAMYILGTIEILLAYLFPAMAIFKAEDASGEAAAMLNNMRVYGTCVLTCMATVVFVGVKYVNKFALVFLGCVILSILAIYAGVIKSAFDPPNFPICLLGNRTLSRHGFDVCAKLAWEGNETVTTRLWGLFCSSRLLNATCDEYFTRNNVTEIQGIPGAASGLIKENLWSSYLTKGVIVERRGMPSVGLADGTPVDMDHPYVFSDMTSYFTLLVGIYFPSVTGIMAGSNRSGDLRDAQKSIPTGTILAIATTSAVYISSVVLFGACIEGVVLRDKFGEAVNGNLVVGTLAWPSPWVIVIGSFFSTCGAGLQSLTGAPRLLQAISRDGIVPFLQVFGHGKANGEPTWALLLTACICEIGILIASLDEVAPILSMFFLMCYMFVNLACAVQTLLRTPNWRPRFRYYHWTLSFLGMSLCLALMFICSWYYALVAMLIAGLIYKYIEYRGAEKEWGDGIRGLSLSAARYALLRLEEGPPHTKNWRPQLLVLVRVDQDQNVVHPQLLSLTSQLKAGKGLTIVGSVLEGTFLDNHPQAQRAEESIRRLMEAEKVKGFCQVVISSNLRDGVSHLIQSGGLGGLQHNTVLVGWPRNWRQKEDHQTWRNFIELVRETTAGHLALLVTKNVSMFPGNPERFSEGSIDVWWIVHDGGMLMLLPFLLRHHKVWRKCKMRIFTVAQMDDNSIQMKKDLTTFLYHLRITAEVEVVEMHESDISAYTYEKTLVMEQRSQILKQMHLTKNEREREIQSITDESRGSIRRKNPANTRLRLNVPEETACDNEEKPEEEVQLIHDQSAPSCPSSSPSPGEEPEGEGETDPEKVHLTWTKDKSAAQKNKGPSPVSSEGIKDFFSMKPEWENLNQSNVRRMHTAVRLNEVIVNKSRDAKLVLLNMPGPPRNRNGDENYMEFLEVLTEQLDRVMLVRGGGREVITIYS
In the case of B1, the results for the binding entry in assay [1] and in assay [2] were “binds” and “no binding”, respectively.

The values above are taken from publication PMC5224924.
